Measured values as given in PMC7400437, “Synthesis and Evaluation of the Antibacterial Activities of 13-Substituted Berberine Derivatives” (Antibiotics, 2020).

Legend:
[1] = system: HepG2 (human liver cells); assay: Cytotoxic assay on human cells (resazurin); format: cell-based; conditions: IC50 on HEPG2 divided by MIC on S. aureus
Description: (§1) The toxicity of berberine and berberine’s derivatives on human cells was evaluated using resazurin assay as previously described. Human cells used were BEAS (ATCC CRL-9609), Caco2 (ATCC HTB-37) and HepG2 (ATCC HB-8065) corresponding respectively to human airway epithelial cells, intestinal epithelial cells and liver cells. Cells were cultured in Dulbecco’s modified essential medium (DMEM) supplemented with 10% fetal bovine serum (FBS), 1% L-glutamine and 1% antibiotics (Thermo Fisher Scientific, Illkirch-Graffenstaden, France). Cells were routinely grown on 25 cm^2 flasks and maintained in a 5% CO2 incubator at 37 °C. For toxicity assay, cells were detached using trypsin–EDTA solution (Thermo Fisher Scientific), counted using Mallasez counting chamber and seeded into 96-well cell culture plates (Greiner bio-One, Dominique Dutscher, Brumath, France) at approximately 10,000 cells per well. The cells were left to grow for 48–72 h at 37 °C in a 5% CO2 incubator until they reached confluence. Media from wells was then aspirated and cells were treated with 100 µL of culture media containing increasing concentrations of berberine or berberine’s derivatives obtained by serial dilution (from 0 to 50 µM, 1:2 dilution), DMSO (0.5% DMSO final concentration) was used as negative control. After 48 h incubation at 37 °C in a 5% CO2 incubator, cell viability was evaluated using resazurin based in vitro toxicity assay kit (Sigma-Aldrich) following manufacturer’s instructions. Briefly, cell wells were emptied, and cells were treated with 100 µL of resazurin diluted 1:10 in sterile PBS containing calcium and magnesium (PBS^++, pH 7.4). After 4 h incubation at 37 °C, fluorescence intensity (excitation wavelength of 530 nm/emission wavelength of 590 nm) was measured using Synergy Mx microplate reader (Biotek). The fluorescence values were normalized by the controls (DMSO treated cells) and expressed as percent viability. The IC50 values of berberine and berberine’s derivatives on cell viability (i.e., the concentration of derivative causing a reduction of 50% of the cell viability) were calculated using GraphPad® Prism 7 software (San Diego, CA, USA). t-Test and two ways ANOVA analyses were used to address the significant differences between mean values with significance set at p < 0.05.

[2] = system: BEAS (human airway epithelial cells); assay: Cytotoxic assay on human cells (resazurin); format: cell-based; conditions: IC50 on BEAS divided by MIC on S. aureus
Description: as §1

Compound: COc1ccc2c(Cc3ccc(CI)cc3)c3[n+](cc2c1OC)CCc1cc2c(cc1-3)OCO2 [Compound 8, 13-(4-Iodomethylbenzyl)Berberine]
- therapeutic index HEPG2 [1]: 260.30
- therapeutic index BEAS [2]: 3.74

Compound: COc1cc(C(=O)Cc2c3[n+](cc4c(OC)c(OC)ccc24)CCc2cc4c(cc2-3)OCO4)cc(OC)c1OC(=O)c1ccccc1 [Compound 16, 4-[2-(Berberin-13-yl)acetyl]-2,6-dimethoxyphenyl Benzoate]
- therapeutic index HEPG2 [1]: 72.14
- therapeutic index BEAS [2]: 13.79

Compound: COc1ccc2c(CC(=O)c3ccc(OC(=O)c4ccccc4)cc3OC(=O)c3ccccc3)c3[n+](cc2c1OC)CCc1cc2c(cc1-3)OCO2 [Compound 17, 4-[2-(Berberin-13-yl)acetyl]-3-(benzoyloxy)phenyl Benzoate]
- therapeutic index HEPG2 [1]: 342.00
- therapeutic index BEAS [2]: 6.78

Compound: COc1ccc2c(Cc3ccc(/C=C/C(=O)NCCc4ccc(S(N)(=O)=O)cc4)cc3)c3[n+](cc2c1OC)CCc1cc2c(cc1-3)OCO2 [Compound 23, (2E)-3-{4-[(Berberin-13-yl)methyl]phenyl}-N-[2-(4-sulfamoylphenyl)ethyl]prop-2-enamide]
- therapeutic index HEPG2 [1]: 206.00
- therapeutic index BEAS [2]: 12.66

Compound: COc1ccc(C(=O)/C=C/c2ccc(Cc3c4[n+](cc5c(OC)c(OC)ccc35)CCc3cc5c(cc3-4)OCO5)cc2)c(O)c1 [Compound 25, (2E)-3-{4-[(Berberin-13-yl)methyl]phenyl}-1-(2-hydroxy-4-methoxyphenyl)prop-2-en-1-one]
- therapeutic index HEPG2 [1]: 39.39
- therapeutic index BEAS [2]: 2.83

Compound: COc1ccc2c(=O)cc(-c3ccc(Cc4c5[n+](cc6c(OC)c(OC)ccc46)CCc4cc6c(cc4-5)OCO6)cc3)oc2c1 [Compound 26, 2-{4-[(Berberin-13-yl)methyl]phenyl}-7-methoxy-4H-chromen-4-one]
- therapeutic index HEPG2 [1]: 180.70
- therapeutic index BEAS [2]: 41.52
